From US20240376224A1 (University of California, published 2024)
No constants are given. Whether binding was seen depends on the method and setting. Some binding calls cover weakened binding; strength is not graded here. For some assays here: Tags and fused reporters may be left off the sequences shown. One block for each binder: values may come before it.

What was measured:
[1] = biological target: T1, mouse c-CDCP1 (recombinant cleaved mouse CDCP1) (mouse) (UniProt Q5U462); assay: BLI
T1 sequence 1: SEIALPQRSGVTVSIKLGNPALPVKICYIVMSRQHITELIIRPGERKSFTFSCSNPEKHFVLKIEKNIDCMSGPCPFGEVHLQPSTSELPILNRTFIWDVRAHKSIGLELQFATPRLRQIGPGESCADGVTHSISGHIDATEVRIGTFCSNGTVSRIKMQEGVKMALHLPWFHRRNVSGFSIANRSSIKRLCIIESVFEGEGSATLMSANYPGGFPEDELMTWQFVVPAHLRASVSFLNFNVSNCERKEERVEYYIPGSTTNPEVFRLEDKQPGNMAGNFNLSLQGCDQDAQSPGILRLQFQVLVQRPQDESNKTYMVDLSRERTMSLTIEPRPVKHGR
T1 sequence 2: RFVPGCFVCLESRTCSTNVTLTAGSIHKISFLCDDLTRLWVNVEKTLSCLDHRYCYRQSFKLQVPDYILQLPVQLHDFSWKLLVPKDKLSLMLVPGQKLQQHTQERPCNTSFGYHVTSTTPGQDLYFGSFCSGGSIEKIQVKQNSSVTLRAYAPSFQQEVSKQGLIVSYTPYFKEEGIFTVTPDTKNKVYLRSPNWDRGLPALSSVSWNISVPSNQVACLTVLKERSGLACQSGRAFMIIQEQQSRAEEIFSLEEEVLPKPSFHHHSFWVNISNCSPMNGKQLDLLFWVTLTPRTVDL

[2] = biological target: T1, mouse c-CDCP1 (recombinant cleaved mouse CDCP1) (mouse); assay: BLI (Octet), Mouse c-CDCP1-Fc on the sensor, IgG 58 at 50, 16.7, 5.5, 1.9, 0.62 nM
c-CDCP1-Fc (Cut 1) = biological target: T2, c-CDCP1-Fc (Cut 1) (human, UniProt Q9H5V8 30-365; Q9H5V8 366-667); assay: BLI (Octet), c-CDCP1-Fc (Cut 1) on the sensor, IgG CL03 at 100, 50, 25, 10, 5 nM
T2 construct: Co-transfection of NTF and CTF-Fc plasmids; not shown: Fc domain
T2 sequence 1: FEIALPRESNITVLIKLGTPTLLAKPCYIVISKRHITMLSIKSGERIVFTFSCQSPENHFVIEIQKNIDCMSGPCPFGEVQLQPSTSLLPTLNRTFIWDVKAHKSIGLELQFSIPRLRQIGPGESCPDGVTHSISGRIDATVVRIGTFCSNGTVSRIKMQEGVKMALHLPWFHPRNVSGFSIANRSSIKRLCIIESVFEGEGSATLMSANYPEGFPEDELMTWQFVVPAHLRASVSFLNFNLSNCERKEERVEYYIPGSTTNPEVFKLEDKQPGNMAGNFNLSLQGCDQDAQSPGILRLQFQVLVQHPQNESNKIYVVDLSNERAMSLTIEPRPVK
T2 sequence 2: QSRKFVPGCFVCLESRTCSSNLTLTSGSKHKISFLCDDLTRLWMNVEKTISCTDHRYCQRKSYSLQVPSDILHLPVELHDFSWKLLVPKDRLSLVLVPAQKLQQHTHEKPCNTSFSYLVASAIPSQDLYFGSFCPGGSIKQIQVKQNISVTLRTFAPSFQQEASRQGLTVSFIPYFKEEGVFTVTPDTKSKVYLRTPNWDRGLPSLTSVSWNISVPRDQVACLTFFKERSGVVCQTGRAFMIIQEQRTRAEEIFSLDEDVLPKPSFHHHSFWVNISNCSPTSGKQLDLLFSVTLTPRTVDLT

c-CDCP1-Fc (Cut 2) = biological target: T3, c-CDCP1-Fc (Cut 2) (human, UniProt Q9H5V8 30-368; Q9H5V8 369-667); assay: BLI (Octet), c-CDCP1-Fc (Cut 2) on the sensor, IgG CL03 at 100, 50, 25, 10, 5 nM
T3 construct: Co-transfection of NTF and CTF-Fc plasmids; not shown: Fc domain
T3 sequence 1: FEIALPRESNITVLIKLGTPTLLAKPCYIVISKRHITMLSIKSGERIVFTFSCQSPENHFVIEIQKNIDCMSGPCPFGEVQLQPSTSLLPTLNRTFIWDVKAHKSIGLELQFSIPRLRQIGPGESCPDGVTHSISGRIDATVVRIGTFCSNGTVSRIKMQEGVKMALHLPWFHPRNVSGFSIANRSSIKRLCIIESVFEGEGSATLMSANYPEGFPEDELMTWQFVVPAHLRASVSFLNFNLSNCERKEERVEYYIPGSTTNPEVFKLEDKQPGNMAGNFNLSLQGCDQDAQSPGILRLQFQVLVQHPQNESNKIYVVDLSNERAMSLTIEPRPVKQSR
T3 sequence 2: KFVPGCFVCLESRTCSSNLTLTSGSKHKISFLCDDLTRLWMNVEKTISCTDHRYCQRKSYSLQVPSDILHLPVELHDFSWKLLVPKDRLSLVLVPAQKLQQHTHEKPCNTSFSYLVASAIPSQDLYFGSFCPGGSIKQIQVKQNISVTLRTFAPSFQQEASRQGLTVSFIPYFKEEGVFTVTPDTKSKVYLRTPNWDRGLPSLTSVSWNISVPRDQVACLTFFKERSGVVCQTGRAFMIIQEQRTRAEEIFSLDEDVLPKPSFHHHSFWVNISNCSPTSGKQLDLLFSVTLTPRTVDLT

c-CDCP1-Fc (Cut 3) = biological target: T4, c-CDCP1-Fc (Cut 3) (human, UniProt Q9H5V8 30-369; Q9H5V8 370-667); assay: BLI (Octet), c-CDCP1-Fc (Cut 3) on the sensor, IgG CL03 at 100, 50, 25, 10, 5 nM
T4 construct: Co-transfection of NTF and CTF-Fc plasmids; not shown: Fc domain
T4 sequence 1: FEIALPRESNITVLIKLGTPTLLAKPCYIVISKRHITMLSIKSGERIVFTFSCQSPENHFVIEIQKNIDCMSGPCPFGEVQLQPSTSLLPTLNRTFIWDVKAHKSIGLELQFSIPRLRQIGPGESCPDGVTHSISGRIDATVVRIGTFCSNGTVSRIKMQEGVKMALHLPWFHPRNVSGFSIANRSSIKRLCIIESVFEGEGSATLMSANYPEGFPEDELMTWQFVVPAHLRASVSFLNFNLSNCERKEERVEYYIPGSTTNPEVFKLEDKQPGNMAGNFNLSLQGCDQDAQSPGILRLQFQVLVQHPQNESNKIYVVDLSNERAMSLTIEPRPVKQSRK
T4 sequence 2: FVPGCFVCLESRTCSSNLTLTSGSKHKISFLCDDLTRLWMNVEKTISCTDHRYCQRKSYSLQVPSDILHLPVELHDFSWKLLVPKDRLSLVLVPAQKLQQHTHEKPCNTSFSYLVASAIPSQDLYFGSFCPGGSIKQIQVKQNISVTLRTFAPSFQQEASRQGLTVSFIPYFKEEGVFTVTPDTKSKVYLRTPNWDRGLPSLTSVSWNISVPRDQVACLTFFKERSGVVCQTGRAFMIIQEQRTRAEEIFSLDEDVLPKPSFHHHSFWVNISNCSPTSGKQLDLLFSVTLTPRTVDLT

[3] = biological target: T5, c-CDCP1 (Cut 3) ectodomain (human, UniProt Q9H5V8 30-369; Q9H5V8 370-667); assay: sandwich ELISA; IgG CL03 as capture antibody, anti-CDCP1 polyclonal Ab (R&D AF2666) as detection
T5 construct: Made by co-transfection of NTF and CTF plasmids, purified by Ni-NTA (tag not described); also called cCDCP1 ECD cut 3
T5 sequence 1: T4 sequence 1
T5 sequence 2: T4 sequence 2

[4] = biological target: T6, c-CDCP1 (Cut 1) ectodomain (human) (UniProt Q9H5V8); assay: as above
T6 sequence 1: T2 sequence 1
T6 sequence 2: T2 sequence 2

[5] = biological target: T7, c-CDCP1 (Cut 2) ectodomain (human) (UniProt Q9H5V8); assay: as above
T7 sequence 1: T3 sequence 1
T7 sequence 2: T3 sequence 2

[6] = biological target: T5, c-CDCP1 (Cut 3) ectodomain; assay: sandwich ELISA, CL03 as capture antibody, antigen titrated (ng/mL), anti-CDCP1 polyclonal antibody for detection
[7] = biological target: T6, c-CDCP1 (Cut 1) ectodomain (human); assay: as above
[8] = biological target: T7, c-CDCP1 (Cut 2) ectodomain (human); assay: as above

binding [1]: binds | binding [2]: binds
B1: IgG 58 (antibody, V domains shown)
VH: EVQLVESGGGLVQPGGSLRLSCAASGFNVYSYSIHWVRQAPGKGLEWVASISSSSGSTSYADSVKGRFTISADTSKNTAYLQMNSLRAEDTAVYYCARYYWDPWQYASYSYLAFDYWGQGTLVTVSS
VL: MTQSPSSLSASVGDRVTITCRASQSVSSAVAWYQQKPGKAPKLLIYSASSLYSGVPSRFSGSRSGTDFTLTISSLQPEDFATYYCQQTYSGPITFGQGTKVEIKR
notes: Mouse cleaved-CDCP1-specific antibody; also called Ab58; IgG 0058

binding (c-CDCP1-Fc (Cut 1)): binds | binding (c-CDCP1-Fc (Cut 2)): binds | binding (c-CDCP1-Fc (Cut 3)): binds | binding [3]: binds | binding [4]: binds | binding [5]: binds | binding [6]: binds | binding [7]: binds | binding [8]: binds
B2: CL03 IgG (antibody, V domains shown)
VH: EVQLVESGGGLVQPGGSLRLSCAASGFNFSSYSIHWVRQAPGKGLEWVASIYPYSGSTYYADSVKGRFTISADTSKNTAYLQMNSLRAEDTAVYYCARQSHSYYSHTWWVSYGMDYWGQGTLVTVSS
VL: DIQMTQSPSSLSASVGDRVTITCRASQSVSSAVAWYQQKPGKAPKLLIYSASSLYSGVPSRFSGSRSGTDFTLTISSLQPEDFATYYCQQSGQRPITFGQGTKVEIKR
notes: also called IgG CL03
